{"sequences": {"note": "By UniProt entry, the sequences of proteins in these tests, tags left out. Residues count along the entry.", "UniProt P25779, 123-467 limits assumed": "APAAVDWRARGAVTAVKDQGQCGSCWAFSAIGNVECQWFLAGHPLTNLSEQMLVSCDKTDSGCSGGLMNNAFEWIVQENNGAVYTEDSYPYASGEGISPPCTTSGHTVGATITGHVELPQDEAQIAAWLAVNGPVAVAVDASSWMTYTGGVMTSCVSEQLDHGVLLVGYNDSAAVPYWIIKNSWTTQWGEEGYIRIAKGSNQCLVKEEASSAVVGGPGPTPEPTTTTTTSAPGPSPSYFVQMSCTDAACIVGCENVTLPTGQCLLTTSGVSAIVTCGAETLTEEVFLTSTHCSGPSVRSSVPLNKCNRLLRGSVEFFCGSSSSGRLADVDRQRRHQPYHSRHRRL"}, "source": "PubChem BioAssay AID1476", "about": "(National Center for Advancing Translational Sciences (NCATS), 2009)", "note": "Among all 200,000 compounds or so, about 4,500 (2.2%) were called active. All entries are inconclusive by the source's own rule. Clear calls are listed elsewhere. Calls come from the whole dose curve; as a rule, active = well fitted inhibition curve with a large enough effect; inconclusive = small, poorly fitted or top-dose-only effect, or effect the other way; inactive = flat fitted curve, though single readings scatter. Potency is the fitted concentration of half-maximal effect."}
{"biological_target": "Cruzipain (Trypanosoma cruzi) (UniProt P25779)", "assay": "qHTS Assay for Promiscuous and Specific Inhibitors of Cruzain (without detergent); note: nearly all actives have a fitted effect of over 40% in size", "settings": "purified cruzain, Z-FR-AMC fluorescence, no detergent"}
{"smiles": "CP(=O)(OC12CC3CC(CC(C3)C1)C2)OC12CC3CC(CC(C3)C1)C2", "Potency": "inconclusive: 25.1 µM"}
